Results as given in publication PMC3466170.
No constants are given. Whether binding was seen depends on the method and setting. Some entries that bind do so weakly or less than the wild type.

Target: T1, outer membrane porin OprF (PA1777) (P. aeruginosa (endogenous in PAO1 and PATI2)) (UniProt P13794)
T1 sequence: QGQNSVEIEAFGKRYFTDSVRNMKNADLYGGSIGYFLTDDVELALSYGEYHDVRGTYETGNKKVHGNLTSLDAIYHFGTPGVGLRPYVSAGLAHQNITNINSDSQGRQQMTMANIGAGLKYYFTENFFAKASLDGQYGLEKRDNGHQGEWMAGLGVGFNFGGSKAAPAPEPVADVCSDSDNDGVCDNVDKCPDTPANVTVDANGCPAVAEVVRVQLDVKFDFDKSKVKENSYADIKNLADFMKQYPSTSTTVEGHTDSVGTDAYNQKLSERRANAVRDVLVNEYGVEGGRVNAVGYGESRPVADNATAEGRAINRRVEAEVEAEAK
Assay: far-Western, overlay or dot blot; data not shown; OprF eluted from the His-LecB column transferred to a blotting membrane (PVDF) and treated with 1 µg/ml peroxidase-labelled LecB; both purified

Q: How did the binding turn out when “peroxidase labelled LecB (from UniProt Q9HYN5 1-115)” was run?
A: binds
